# Measured values from the supplement of paper PMC8728848.
# Some of the results follow.
# What was measured:
# Test in all cases: glycan array binding signal (z-score within array); higher = stronger binding
# Settings in all cases: glycan notation: IUPAC condensed, linker removed
# Fuc(a1-2)Gal = biological target: Fuc(a1-2)Gal
# Procedure, shortened: (§1)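 Negative Z-scores can be read as non-binding. The Z-score is calculated within each array and then averaged across arrays of one protein sequence at different concentrations or buffers and across linkers. Arrays, 3228 in all, were curated from the Consortium for Functional Glycomics database and kept only where the protein sequence was available.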
# Fuc(a1-2)Gal(b1-3)GalNAc = biological target: Fuc(a1-2)Gal(b1-3)GalNAc
# Procedure, shortened: as §1
# [1] = biological target: Fuc(a1-2)Gal(b1-3)GalNAc(a1-3)[Fuc(a1-2)]Gal(b1-4)Glc
# Procedure, shortened: as §1
# [2] = biological target: Fuc(a1-2)Gal(b1-3)GalNAc(a1-3)[Fuc(a1-2)]Gal(b1-4)GlcNAc
# Procedure, shortened: as §1
# [3] = biological target: Fuc(a1-2)Gal(b1-3)GalNAc(b1-3)Gal
# Procedure, shortened: as §1
# [4] = biological target: Fuc(a1-2)Gal(b1-3)GalNAc(b1-3)Gal(a1-4)Gal(b1-4)Glc
# Procedure, shortened: as §1
# [5] = biological target: Fuc(a1-2)Gal(b1-3)GalNAc(b1-4)[Neu5Ac(a2-3)]Gal(b1-4)Glc
# Procedure, shortened: as §1
# Fuc(a1-2)Gal(b1-3)GlcNAc = biological target: Fuc(a1-2)Gal(b1-3)GlcNAc
# Procedure, shortened: as §1
# [6] = biological target: Fuc(a1-2)Gal(b1-3)GlcNAc(b1-2)Man(a1-3)[Fuc(a1-2)Gal(b1-3)GlcNAc(b1-2)Man(a1-6)]Man(b1-4)GlcNAc(b1-4)GlcNAc
# Procedure, shortened: as §1
# [7] = biological target: Fuc(a1-2)Gal(b1-3)GlcNAc(b1-2)Man(a1-3)[Fuc(a1-2)Gal(b1-3)GlcNAc(b1-2)Man(a1-6)]Man(b1-4)GlcNAc(b1-4)[Fuc(a1-6)]GlcNAc
# Procedure, shortened: as §1
# [8] = biological target: Fuc(a1-2)Gal(b1-3)GlcNAc(b1-3)Gal(b1-4)Glc
# Procedure, shortened: as §1
# [9] = biological target: Fuc(a1-2)Gal(b1-3)GlcNAc(b1-3)GalNAc
# Procedure, shortened: as §1
# [10] = biological target: Fuc(a1-2)Gal(b1-3)GlcNAc(b1-3)[Fuc(a1-2)Gal(b1-3)GlcNAc(b1-6)]GalNAc
# Procedure, shortened: as §1
# [11] = biological target: Fuc(a1-2)Gal(b1-3)GlcNAc(b1-3)[Gal(b1-4)GlcNAc(b1-6)]Gal(b1-4)Glc
# Procedure, shortened: as §1
# [12] = biological target: Fuc(a1-2)Gal(b1-3)GlcNAc(b1-3)[Neu5Ac(a2-6)Gal(b1-4)GlcNAc(b1-6)]Gal(b1-4)Glc
# Procedure, shortened: as §1
# [13] = biological target: Fuc(a1-2)Gal(b1-3)GlcNAc6S
# Procedure, shortened: as §1
# [14] = biological target: Fuc(a1-2)Gal(b1-3)[Fuc(a1-4)]GlcNAc
# Procedure, shortened: as §1
# [15] = biological target: Fuc(a1-2)Gal(b1-3)[Fuc(a1-4)]GlcNAc(b1-2)Man(a1-3)[Fuc(a1-2)Gal(b1-3)[Fuc(a1-4)]GlcNAc(b1-2)Man(a1-3)]Man(b1-4)GlcNAc(b1-4)GlcNAc
# Procedure, shortened: as §1
# [16] = biological target: Fuc(a1-2)Gal(b1-3)[Fuc(a1-4)]GlcNAc(b1-2)Man(a1-3)[Fuc(a1-2)Gal(b1-3)[Fuc(a1-4)]GlcNAc(b1-2)Man(a1-6)]Man(b1-4)GlcNAc(b1-4)[Fuc(a1-6)]GlcNAc(b1-4)[Fuc(a1-6)]GlcNAc
# Procedure, shortened: as §1
# [17] = biological target: Fuc(a1-2)Gal(b1-3)[Fuc(a1-4)]GlcNAc(b1-3)[Fuc(a1-3)[Gal(b1-4)]GlcNAc(b1-6)]Gal(b1-4)Glc
# Procedure, shortened: as §1
# [18] = biological target: Fuc(a1-2)Gal(b1-3)[Fuc(a1-4)]GlcNAc(b1-3)[Gal(b1-4)GlcNAc(b1-6)]Gal(b1-4)Glc
# Procedure, shortened: as §1
# [19] = biological target: Fuc(a1-2)Gal(b1-4)Fuc(a1-3)]GlcNAc(b1-2)Man(a1-3)[Fuc(a1-2)Gal(b1-4)[Fuc(a1-3)]GlcNAc(b1-2)Man(a1-6)]Man(b1-4)GlcNAc(b1-4)GlcNAc
# Procedure, shortened: as §1
# Fuc(a1-2)Gal(b1-4)Glc = biological target: Fuc(a1-2)Gal(b1-4)Glc
# Procedure, shortened: as §1
# Fuc(a1-2)Gal(b1-4)Glc6S = biological target: Fuc(a1-2)Gal(b1-4)Glc6S
# Procedure, shortened: as §1
# Fuc(a1-2)Gal(b1-4)GlcNAc = biological target: Fuc(a1-2)Gal(b1-4)GlcNAc
# Procedure, shortened: as §1
# [20] = biological target: Fuc(a1-2)Gal(b1-4)GlcNAc(b1-2)Man
# Procedure, shortened: as §1
# [21] = biological target: Fuc(a1-2)Gal(b1-4)GlcNAc(b1-2)Man(a1-3)[Fuc(a1-2)Gal(b1-4)GlcNAc(b1-2)Man(a1-6)]Man(b1-4)GlcNAc(b1-4)GlcNAc
# Procedure, shortened: as §1
# [22] = biological target: Fuc(a1-2)Gal(b1-4)GlcNAc(b1-2)Man(a1-3)[Fuc(a1-2)Gal(b1-4)GlcNAc(b1-2)Man(a1-6)]Man(b1-4)GlcNAc(b1-4)[Fuc(a1-6)]GlcNAc
# Procedure, shortened: as §1
# [23] = biological target: Fuc(a1-2)Gal(b1-4)GlcNAc(b1-2)[Fuc(a1-2)Gal(b1-4)GlcNAc(b1-4)]Man(a1-3)[Fuc(a1-2)Gal(b1-4)GlcNAc(b1-2)Man(a1-6)]Man(b1-4)GlcNAc(b1-4)GlcNAc
# Procedure, shortened: as §1
# [24] = biological target: Fuc(a1-2)Gal(b1-4)GlcNAc(b1-3)Gal(b1-4)GlcNAc
# Procedure, shortened: as §1
binder,measurement,setting,value
"AntigenI/IIC123 (Streptococcus mutans), C9E3B4 (protein) MASMTGGQQMGRIHFHYFKLAVQPQVNKEIRNNNDINIDRTLVAKQSVVKFQLKTADLPAGRDETTSFVLVDPLPSGYQFNPEATKAASPGFDVTYDNATNTVTFKATAATLATFNADLTKSVATIYPTVVGQVLNDGATYKNNFTLTVNDAYGIKSNVVRVTTPGKPNDPDNPNNNYIKPTKVNKNENGVVIDGKTVLAGSTNYYELTWDLDQYKNDRSSADTIQKGFYYVDDYPEEALELRQDLVKITDANGNEVTGVSVDNYTNLEAAPQEIRDVLSKAGIRPKGAFQIFRADNPREFYDTYVKTGIDLKIVSPMVVKKQMGQTGGSYENQAYQIDFGNGYASNIIINNVPKINPKKDVTLTLDPADTNNVDGQTIPLNTVFNYRLIGGIIPADHSEELFEYNFYDDYDQTGDHYTGQYKVFAKVDITFKDGSIIKSGAELTQYTTAEVDTAKGAITIKFKEAFLRSVSIDSAFQAESYIQMKRIAVGTFENTYINTVNGVTYSSLEHHHHHH",glycan array binding signal (z-score),Fuc(a1-2)Gal,0.238
same,glycan array binding signal (z-score),Fuc(a1-2)Gal(b1-3)GalNAc,-0.572
same,glycan array binding signal (z-score),[1],-0.468
same,glycan array binding signal (z-score),[2],0.234
same,glycan array binding signal (z-score),[3],-0.622
same,glycan array binding signal (z-score),[4],0.182
same,glycan array binding signal (z-score),[5],-0.432
same,glycan array binding signal (z-score),Fuc(a1-2)Gal(b1-3)GlcNAc,-0.691
same,glycan array binding signal (z-score),[6],1.44
same,glycan array binding signal (z-score),[7],2.08
same,glycan array binding signal (z-score),[8],-0.259
same,glycan array binding signal (z-score),[9],1.04
same,glycan array binding signal (z-score),[10],3.07
same,glycan array binding signal (z-score),[11],-0.6
same,glycan array binding signal (z-score),[12],0.012
same,glycan array binding signal (z-score),[13],-0.232
same,glycan array binding signal (z-score),[14],-0.746
same,glycan array binding signal (z-score),[15],-0.139
same,glycan array binding signal (z-score),[16],0.04
same,glycan array binding signal (z-score),[17],-0.898
same,glycan array binding signal (z-score),[18],-0.704
same,glycan array binding signal (z-score),[19],0.084
same,glycan array binding signal (z-score),Fuc(a1-2)Gal(b1-4)Glc,-0.774
same,glycan array binding signal (z-score),Fuc(a1-2)Gal(b1-4)Glc6S,-0.994
same,glycan array binding signal (z-score),Fuc(a1-2)Gal(b1-4)GlcNAc,0.093
same,glycan array binding signal (z-score),[20],0.778
same,glycan array binding signal (z-score),[21],0.723
same,glycan array binding signal (z-score),[22],-0.935
same,glycan array binding signal (z-score),[23],-0.219
same,glycan array binding signal (z-score),[24],-0.647

# Already shown: entries from further up.
binder,measurement,setting,value
"AntigenI/IIC123 (Streptococcus mutans), C9E3B4 (protein) MASMTGGQQMGRIHFHYFKLAVQPQVNKEIRNNNDINIDRTLVAKQSVVKFQLKTADLPAGRDETTSFVLVDPLPSGYQFNPEATKAASPGFDVTYDNATNTVTFKATAATLATFNADLTKSVATIYPTVVGQVLNDGATYKNNFTLTVNDAYGIKSNVVRVTTPGKPNDPDNPNNNYIKPTKVNKNENGVVIDGKTVLAGSTNYYELTWDLDQYKNDRSSADTIQKGFYYVDDYPEEALELRQDLVKITDANGNEVTGVSVDNYTNLEAAPQEIRDVLSKAGIRPKGAFQIFRADNPREFYDTYVKTGIDLKIVSPMVVKKQMGQTGGSYENQAYQIDFGNGYASNIIINNVPKINPKKDVTLTLDPADTNNVDGQTIPLNTVFNYRLIGGIIPADHSEELFEYNFYDDYDQTGDHYTGQYKVFAKVDITFKDGSIIKSGAELTQYTTAEVDTAKGAITIKFKEAFLRSVSIDSAFQAESYIQMKRIAVGTFENTYINTVNGVTYSSLEHHHHHH",glycan array binding signal (z-score),[12],0.012
same,glycan array binding signal (z-score),[13],-0.232
